Experimental findings from paper PMC11377671 are described below.

Chains of the proteins cited; added tags and fusions are not shown. Residues count along the entry.
UniProt P18888: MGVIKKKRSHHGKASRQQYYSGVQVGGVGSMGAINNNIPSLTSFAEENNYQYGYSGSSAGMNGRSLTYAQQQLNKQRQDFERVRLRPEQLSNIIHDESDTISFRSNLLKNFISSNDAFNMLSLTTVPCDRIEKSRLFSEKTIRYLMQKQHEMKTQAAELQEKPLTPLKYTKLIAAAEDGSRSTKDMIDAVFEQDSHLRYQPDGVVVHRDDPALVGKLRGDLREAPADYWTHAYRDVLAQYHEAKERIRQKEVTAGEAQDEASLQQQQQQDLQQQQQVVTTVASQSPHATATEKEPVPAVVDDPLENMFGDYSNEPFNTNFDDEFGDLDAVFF
HA-Snf5 aa 130–275 (ABD1) (P18480, residues 130-275): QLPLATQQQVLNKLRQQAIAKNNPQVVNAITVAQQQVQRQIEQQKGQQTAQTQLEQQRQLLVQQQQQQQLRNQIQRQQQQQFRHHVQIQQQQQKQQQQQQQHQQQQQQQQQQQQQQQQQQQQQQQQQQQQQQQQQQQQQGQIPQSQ
HA-Snf5 aa 265–334 (ABD2) (P18480, residues 265-334): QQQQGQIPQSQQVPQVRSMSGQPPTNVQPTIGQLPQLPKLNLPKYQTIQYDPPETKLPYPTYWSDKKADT

In experiment [1] the target is T1, GST-Ino2 TAD2 (aa 101–135) (S. cerevisiae) (UniProt P26798).
T1 sequence: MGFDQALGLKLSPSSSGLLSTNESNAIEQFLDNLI
In words: pull-down; GST-TAD fusion from E. coli immobilized on GSH sepharose, incubated with total protein extract of E. coli transformants containing the HA fusion; buffer SA-125 (20 mM HEPES pH 7.6, 1 mM DTT, 1 mM EDTA, 125 mM K-acetate, 20% glycerol, 1% NP-40); elution with free GSH, anti-HA blot; only the target purified.

For experiment [2], the target named is T2, GST-Pho4 TAD (aa 1–104) (S. cerevisiae) (UniProt P07270).
T2 sequence: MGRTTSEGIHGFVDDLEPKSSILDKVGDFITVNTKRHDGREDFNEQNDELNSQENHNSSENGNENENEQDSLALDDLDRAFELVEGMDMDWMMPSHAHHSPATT
Described as above.

The target in experiment [3] is T3, GST-Ino2 TAD1 (aa 1–35) (S. cerevisiae) (UniProt P26798).
T3 sequence: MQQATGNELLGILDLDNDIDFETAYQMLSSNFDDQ
The description is as above.

Experiment [4] concerns the target T1, GST-Ino2 TAD2 (aa 101–135) (S. cerevisiae). The experiment is described as follows: pull-down; GST-TAD fusion from E. coli immobilized on GSH sepharose, incubated with total protein extract of yeast transformants containing the HA fusion; buffer SA-125 (20 mM HEPES pH 7.6, 1 mM DTT, 1 mM EDTA, 125 mM K-acetate, 20% glycerol, 1% NP-40); elution with free GSH, anti-HA blot; only the target purified.

Experiment [5] addresses T2, GST-Pho4 TAD (aa 1–104) (S. cerevisiae). The description is as above.
Experiment [6] concerns the target T3, GST-Ino2 TAD1 (aa 1–35) (S. cerevisiae). The experiment is described as above.
Experiment [7] has the same target. In words: pull-down; GST-Ino2 TAD1 immobilized on GSH sepharose, incubated with protein extract containing the HA-tagged length variant made in E. coli or in S. cerevisiae (host of each variant marked only in Fig. 3B, 4B); buffer SA-125; anti-HA blot; only the target purified.
In experiment [8] the target is T1, GST-Ino2 TAD2 (aa 101–135) (S. cerevisiae). The experiment is described as follows: pull-down; minimal ABDs of Swi1, Swi2, Snf5, Sth1 and Ino80 with Ino2 TAD2; results not shown; only the target purified.
Experiment [9] shares this target. In words: pull-down; GST-TAD fusion from E. coli immobilized on GSH sepharose, incubated with total protein extract of yeast transformants containing the HA fusion; buffer SA-125 (20 mM HEPES pH 7.6, 1 mM DTT, 1 mM EDTA, 125 mM K-acetate, 20% glycerol, 1% NP-40); elution with free GSH, anti-HA blot; only the target purified. The source holds these as a separate data set.

The target in experiment [10] is T3, GST-Ino2 TAD1 (aa 1–35) (S. cerevisiae). The description is as above. The source holds these as a separate data set.
For experiment [11] the target is unchanged. The experiment is described as follows: pull-down; GST-Ino2 TAD1 immobilized on GSH sepharose, incubated with protein extract containing the HA-tagged length variant made in E. coli or in S. cerevisiae (host of each variant marked only in Fig. 3B, 4B); buffer SA-125; anti-HA blot; only the target purified. This is another data set of the same source.
Experiment [12] addresses T1, GST-Ino2 TAD2 (aa 101–135) (S. cerevisiae). In words: pull-down; mapping of Swi1 length variants with Ino2 TAD2; not shown; only the target purified.

These are yes or no findings as the source states them, for the method shown. In cells and extracts the contact can be indirect. Some binding calls cover weakened binding; strength is not graded here. Sequences can lack the tags named with a protein.

For “Full-length HA-Snf6, synthesized in E. coli (from UniProt P18888 1-332)”, the binding result in experiment [1], in [2] and in experiment [3] was “binds” each time.
For “Full-length HA-Snf6, synthesized in S. cerevisiae (from UniProt P18888 1-332)”, the binding entry in [4], in [5] and in experiment [6] was “binds” each time.
Turning to “HA-Snf5 aa 130–275 (ABD1) (from UniProt P18480 130-275) (domain or fragment)”, the binding result in [7] and in experiment [8] was “binds” each time.
Take “HA-Snf5 aa 265–334 (ABD2) (from UniProt P18480 265-334) (domain or fragment)”: the binding entry in [7] and in experiment [8] was “binds” throughout.

B1: HA-tagged Swi1 length variant aa 329–657, synthesized in S. cerevisiae (domain or fragment, UniProt P09547 329-657)
chain: RAAMFAALQQKQQQRFQALQQQQQQQQNQQQQNQQPQQQQQQQQNPKFLQSQRQQQQRSILQSLNPALQEKISTELNNKQYELFMKSLIENCKKRNMPLQSIPEIGNRKINLFYLYMLVQKFGGADQVTRTQQWSMVAQRLQISDYQQLESIYFRILLPYERHMISQEGIKETQAKRIFLQQFLQELLKKVQQQQQAAALANANNNINSASSAPTPAAPGASVPATAAPGTEAGIVPVSANTPKSLNSNININVNNNNIGQQQVKKPRKQRVKKKTKKELELERKEREDFQKRQQKLLEDQQRQQKLLLETKLRQQYEIELKKLPKVYK
Consider B1, for which the binding entry in experiment [9] and in experiment [10] was “binds” throughout.

B2: HA-Swi1 variant aa 428–606 (domain or fragment, UniProt P09547 428-606)
chain: QSIPEIGNRKINLFYLYMLVQKFGGADQVTRTQQWSMVAQRLQISDYQQLESIYFRILLPYERHMISQEGIKETQAKRIFLQQFLQELLKKVQQQQQAAALANANNNINSASSAPTPAAPGASVPATAAPGTEAGIVPVSANTPKSLNSNININVNNNNIGQQQVKKPRKQRVKKKTKK
Turning to B2, the binding result in [11] and in [12] was “binds” throughout.
